From the supplement of paper PMC7411640
Structures can show the parent of a compound that is named as a salt. The list shows a part of the results. Most values lie within the scatter of the assay; repeated measurements hardly agree.

Test system: MDA-MB-468
Assay: phospho-S6 immunofluorescence (DAPI-normalised), per-plate z-score; higher = higher phospho-S6 signal (less pathway suppression)
Conditions: 24 h
Description: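 GPCR-targeted compound library (MedChemExpress HY-L006) tested on MDA-MB-468 PTEN-null TNBC cells in 384-well plates at 0.1, 1 or 10 uM, combined with vehicle, GDC0941 450 nM or lapatinib 1 uM, for 24 h. Phospho-S6 (S240/244) immunofluorescence normalised to DAPI and expressed as a per-plate z-score; values are the mean of biological triplicates.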

[1] = compound 0.1 µM, co-treatment: GDC0941 450 nM
[2] = compound 0.1 µM, co-treatment: lapatinib 1 uM
[3] = compound 0.1 µM, co-treatment: vehicle
[4] = compound 1 µM, co-treatment: GDC0941 450 nM
[5] = compound 1 µM, co-treatment: lapatinib 1 uM
[6] = compound 1 µM, co-treatment: vehicle
[7] = compound 10 µM, co-treatment: GDC0941 450 nM
[8] = compound 10 µM, co-treatment: lapatinib 1 uM
[9] = compound 10 µM, co-treatment: vehicle

Compound | phospho-S6 immunofluorescence (z-score) [1] | phospho-S6 immunofluorescence (z-score) [2] | phospho-S6 immunofluorescence (z-score) [3] | phospho-S6 immunofluorescence (z-score) [4] | phospho-S6 immunofluorescence (z-score) [5] | phospho-S6 immunofluorescence (z-score) [6] | phospho-S6 immunofluorescence (z-score) [7] | phospho-S6 immunofluorescence (z-score) [8] | phospho-S6 immunofluorescence (z-score) [9]
CCCN(CCc1cccs1)C1CCc2c(O)cccc2C1 (racemic) [rac-Rotigotine (Hydrochloride)] | -0.31 | -0.27 | -0.14 | -0.44 | -0.4 | 0.41 | -0.62 | 0.67 | -0.11
CNS(=O)(=O)Cc1ccc2[nH]cc(CCN(C)C)c2c1 [Sumatriptan (succinate)] | -0.9 | -0.57 | 1.14 | -0.11 | -1.03 | 0.57 | 0.01 | 0.48 | 0.55
COc1ccccc1OCCNCC(O)COc1cccc2[nH]c3ccccc3c12 (configuration not stated) [Carvedilol] | -2.06 | -0.51 | -2.41 | -1.62 | -0.35 | -2.35 | -4.07 | -4.63 | -3.59
CC[C@@H](Nc1c(Nc2cccc(C(=O)N(C)C)c2O)c(=O)c1=O)c1ccc(C)o1 | 0.47 | 0.21 | 1.67 | 0.25 | 0.05 | 1.15 | 0.29 | -0.41 | 2.26
CN1N=C2CCN(C(=O)[C@@H](COCc3ccccc3)NC(=O)C(C)(C)N)C[C@@]2(Cc2ccccc2)C1=O [Capromorelin (Tartrate)] | 0.08 | 0.16 | 0.34 | 0.54 | -0.02 | 0.17 | -0.05 | -0.67 | -0.14
COc1cc2c(cc1OC)CN(C(=O)[C@@H](NCc1ccncc1)C(C)(C)C)CC2 | -0.48 | -0.48 | 0.4 | 0.07 | 0.78 | 0.01 | 0.85 | 0.87 | -0.05
CCc1cc(-c2noc(-c3cc(OC)nc(C4CCCC4)c3)n2)cc(C)c1OC[C@@H](O)CO [Cenerimod] | -1.2 | -1.68 | -1.01 | -1.8 | 0.7 | -1.47 | -3.08 | -4.72 | -4.14
CC(CN1c2ccccc2Sc2ccccc21)N(C)C (configuration not stated) [Promethazine (hydrochloride)] | -0.01 | -0.5 | 0.11 | -1.17 | -1.41 | -0.92 | -1.86 | -2.76 | -0.84
CNC(=C[N+](=O)[O-])NCCSCc1csc(CN(C)C)n1 [Nizatidine] | 1.32 | 1.4 | -0.28 | -0.24 | 0.85 | -0.08 | -1.38 | 0.52 | 1.38
CC(C)(C)C(=O)C(=Nc1ccc(Cl)cc1)NNc1ccc(Cl)cc1 | 0.19 | -0.44 | -0.43 | -0.78 | -0.84 | -0.07 | -3.52 | -6.25 | -3.76
CC[C@@H]1C(=O)OC[C@@H]1Cc1cncn1C [Pilocarpine (Hydrochloride)] | -0.43 | -0.86 | -1.24 | -0.26 | 0.32 | -0.62 | -0.79 | -0.13 | -0.68
CC(C)C[C@H](NC(=O)[C@H](CC(C)C)NC(=O)[C@H](Cc1ccccc1)NC(=O)[C@@H](N)CO)C(=O)N[C@@H](CCCN=C(N)N)C(=O)N[C@@H](CC(N)=O)C(=O)O | -0.12 | 0.4 | 0.22 | -0.12 | -0.24 | -0.11 | -1.01 | -0.25 | 0.03
COc1cccc(-c2c(C)n(Cc3c(F)cccc3C(F)(F)F)c(=O)n(C[C@H](NCCCC(=O)O)c3ccccc3)c2=O)c1F [Elagolix] | 0.67 | 0.14 | -0.15 | 0.43 | 0.76 | 0.25 | 0.62 | -0.03 | 0.51
CCCN[C@H]1CCc2nc(N)sc2C1 [Pramipexole (dihydrochloride)] | 0.38 | 0.82 | 0.89 | 0.27 | 0.3 | 0.05 | 0.87 | 0.31 | 0.17
OCCNC1CCCc2c1[nH]c1ccc(-c3ccccc3)cc21 (configuration not stated) | -0.4 | -0.22 | 0.65 | -0.89 | -2.18 | 0.44 | -5.16 | -8.66 | -9.39
COc1ccccc1N1CCN(CCCCN2C(=O)c3ccccc3C2=O)CC1 [NAN-190 (hydrobromide)] | 0.5 | -0.69 | 0.16 | 0.06 | 0.45 | 0.78 | 0.76 | -0.29 | 0.19
Cc1cccn2c(=O)c(C=C(C#N)c3nc4ccccc4s3)c(Oc3ccc(F)cc3)nc12 | -0.39 | -0.25 | -0.83 | 0.69 | 0.41 | -0.12 | 0.33 | 1.14 | -0.48
CNS(=O)(=O)CCc1ccc2[nH]cc(C3CCN(C)CC3)c2c1 [Naratriptan (hydrochloride)] | 0.04 | -0.67 | -0.49 | -0.04 | -1.02 | -0.81 | -0.23 | 0.4 | 0.18
CC(C)Cc1ccc([C@@H](C)C(=O)NS(C)(=O)=O)cc1 [Reparixin (L-lysine salt)] | -0.42 | -0.03 | -0.18 | -0.91 | -1.47 | -1.42 | -1.6 | -1.46 | -0.67

Part of the list above in order of molecular weight, rising.
Compound | phospho-S6 immunofluorescence (z-score) [1] | phospho-S6 immunofluorescence (z-score) [2] | phospho-S6 immunofluorescence (z-score) [3] | phospho-S6 immunofluorescence (z-score) [4] | phospho-S6 immunofluorescence (z-score) [5] | phospho-S6 immunofluorescence (z-score) [6] | phospho-S6 immunofluorescence (z-score) [7] | phospho-S6 immunofluorescence (z-score) [8] | phospho-S6 immunofluorescence (z-score) [9]
CC[C@@H]1C(=O)OC[C@@H]1Cc1cncn1C [Pilocarpine (Hydrochloride)] | -0.43 | -0.86 | -1.24 | -0.26 | 0.32 | -0.62 | -0.79 | -0.13 | -0.68
CCCN[C@H]1CCc2nc(N)sc2C1 [Pramipexole (dihydrochloride)] | 0.38 | 0.82 | 0.89 | 0.27 | 0.3 | 0.05 | 0.87 | 0.31 | 0.17
COc1ccccc1N1CCN(CCCCN2C(=O)c3ccccc3C2=O)CC1 [NAN-190 (hydrobromide)] | 0.5 | -0.69 | 0.16 | 0.06 | 0.45 | 0.78 | 0.76 | -0.29 | 0.19

Further compounds

Compound | phospho-S6 immunofluorescence (z-score) [1] | phospho-S6 immunofluorescence (z-score) [2] | phospho-S6 immunofluorescence (z-score) [3] | phospho-S6 immunofluorescence (z-score) [4] | phospho-S6 immunofluorescence (z-score) [5] | phospho-S6 immunofluorescence (z-score) [6] | phospho-S6 immunofluorescence (z-score) [7] | phospho-S6 immunofluorescence (z-score) [8] | phospho-S6 immunofluorescence (z-score) [9]
Cc1nc(C(=O)N2CCC[C@H]2Cc2nnc(-c3ccccc3)o2)c(-c2ccccc2F)s1 | -0.15 | -0.35 | 1.98 | 0.45 | -0.34 | -1.49 | 0.95 | 0.29 | 0.17
C[C@@H]1CCCN1CCc1cc2cc(-c3ccc(C#N)cc3)ccc2o1 | -0.25 | -0.39 | -0.36 | 0.79 | -0.78 | 0.56 | -3.3 | -4.56 | -0.97
CN(C)CCN(Cc1ccccc1)c1ccccn1 [Tripelennamine (hydrochloride)] | -0.85 | -0.39 | -1.43 | -0.75 | 0.37 | 2.65 | -0.07 | -0.31 | -0.41
Clc1ccccc1CN1CCc2sccc2C1 [Ticlopidine (hydrochloride)] | -0.03 | -0.2 | -0.67 | -0.13 | -0.61 | -0.45 | -1.14 | -0.33 | -0.63
C[C@@H](O[C@H]1OCCN(Cc2n[nH]c(=O)[nH]2)[C@H]1c1ccc(F)cc1)c1cc(C(F)(F)F)cc(C(F)(F)F)c1 [Aprepitant] | 0.66 | 1.18 | 0.31 | 0.64 | 0.85 | 0.62 | -1.22 | -1.02 | 0.64
CCC(=O)OCC(=O)[C@@]1(OC(=O)CC)[C@@H](C)C[C@H]2[C@@H]3CCC4=CC(=O)C=C[C@]4(C)[C@@]3(Cl)[C@@H](O)C[C@@]21C [Beclometasone dipropionate] | -1.48 | 1.63 | 1.22 | 0.15 | 0.78 | 0.65 | 0.45 | 0.54 | 0.15
CC(C)NCC(O)COc1ccc(CC(N)=O)cc1 (configuration not stated) [Atenolol] | -0.52 | 0.4 | 0.01 | -0.04 | 0.17 | -0.24 | 0.35 | 1.32 | 0.52
CCCCCNC(=N)N/N=C/c1c[nH]c2ccc(OC)cc12 [Tegaserod (maleate)] | -0.79 | 0.24 | 0.22 | -2.2 | -1.29 | 0.59 | -6 | -12.1 | -10.3
OC[C@H]1O[C@@H](n2cnc3c(NCc4ccc(O)cc4)ncnc32)[C@H](O)[C@@H]1O [N6-(4-Hydroxybenzyl)adenosine] | 0.33 | 1.07 | 0.41 | -0.12 | 1.68 | 1.96 | -0.95 | 1.31 | 0.96
CCc1nc2c(C)nc(C)cc2n1-c1ccc(CCNC(=O)NS(=O)(=O)c2ccc(C)cc2)cc1 [Grapiprant] | 0.21 | 1.03 | 0.01 | 0.01 | 0.5 | -0.35 | -0.05 | -0.15 | -0.51
CCCc1nc(C(C)(C)O)c(C(=O)O)n1Cc1ccc(-c2ccccc2-c2nnn[nH]2)cc1 [Olmesartan] | -0.36 | -0.83 | -1.03 | -0.01 | 0.14 | -0.34 | 0.13 | 0.28 | -0.82
C[C@H]1C[C@H]2[C@@H]3CCC4=CC(=O)C=C[C@]4(C)[C@H]3C(=O)C[C@]2(C)[C@@]1(O)C(=O)CO [Meprednisone] | 0.2 | -1.69 | -0.35 | 0.86 | 0.29 | 0.77 | 0.11 | -0.5 | -0.52
CN(C)CC1CCOC1(c1ccccc1)c1ccccc1 (configuration not stated) [AVex-73 hydrochloride] | 0.89 | 0.38 | -0.02 | 0.01 | -0.94 | 1.31 | -0.82 | -1.17 | 0.2
COc1ccc(NS(=O)(=O)c2sc3ccc(Cl)cc3c2C)cc1N1CCNCC1 | 1.04 | 1.36 | 0.62 | 1.69 | 0.14 | 1.48 | 0.28 | -1 | 0.35
OC[C@H]1O[C@@H](n2cnc3c(N[C@@H]4CCc5ccccc54)ncnc32)[C@H](O)[C@@H]1O | 2.35 | 1.32 | 0.66 | 0.79 | 2.14 | 0.51 | 1.19 | 0.89 | 1.18
N=C(N)N/N=C/c1c(Cl)cccc1Cl [Guanabenz (Acetate)] | 1.3 | -0.09 | -0.53 | 0.12 | 1.05 | -0.85 | 0.61 | -0.12 | -0.2
Cc1ccccc1N1CCN(CCc2nnc3n2CCCC3)CC1 [Dapiprazole (hydrochloride)] | -0.73 | 0.66 | -0.23 | -0.6 | 0.73 | 0.49 | 0.31 | -0.49 | -0.32
C(=C\c1ccccc1)/CN1CCN(C(c2ccccc2)c2ccccc2)CC1 [Cinnarizine] | 0.62 | 0.52 | 0.93 | 0.56 | -0.82 | 1.77 | 0.86 | 0.22 | 1.3
Cn1c(SCC(=O)N2CCC[C@H]2C(=O)Nc2ccccc2-c2ccccc2)nc2ccccc21 | -1.37 | 0.56 | -0.58 | 0.28 | 0.62 | 0.33 | 0.08 | 1.59 | 0.81
